Results are given in words; binding and its absence hold for the method and conditions named. Binding seen in cells or lysates may run through a third protein. Some results given as binding are weak or reduced against the parent protein; the word gives no strength.

Amino acid sequences for entries named in this document (tags omitted).
UniProt O43474: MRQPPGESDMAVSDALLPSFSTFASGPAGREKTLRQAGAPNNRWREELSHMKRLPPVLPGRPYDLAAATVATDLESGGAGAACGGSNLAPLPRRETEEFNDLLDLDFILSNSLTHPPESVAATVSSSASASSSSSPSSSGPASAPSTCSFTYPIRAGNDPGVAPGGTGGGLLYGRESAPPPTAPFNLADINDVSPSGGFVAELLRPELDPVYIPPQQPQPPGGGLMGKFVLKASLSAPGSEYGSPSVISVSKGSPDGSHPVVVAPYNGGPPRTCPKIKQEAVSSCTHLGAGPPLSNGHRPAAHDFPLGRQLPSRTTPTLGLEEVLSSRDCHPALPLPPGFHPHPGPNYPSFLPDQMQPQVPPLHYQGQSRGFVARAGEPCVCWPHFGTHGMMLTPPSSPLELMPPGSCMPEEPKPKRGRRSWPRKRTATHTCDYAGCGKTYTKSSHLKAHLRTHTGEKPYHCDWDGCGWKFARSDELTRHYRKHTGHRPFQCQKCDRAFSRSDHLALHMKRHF
UniProt P09874: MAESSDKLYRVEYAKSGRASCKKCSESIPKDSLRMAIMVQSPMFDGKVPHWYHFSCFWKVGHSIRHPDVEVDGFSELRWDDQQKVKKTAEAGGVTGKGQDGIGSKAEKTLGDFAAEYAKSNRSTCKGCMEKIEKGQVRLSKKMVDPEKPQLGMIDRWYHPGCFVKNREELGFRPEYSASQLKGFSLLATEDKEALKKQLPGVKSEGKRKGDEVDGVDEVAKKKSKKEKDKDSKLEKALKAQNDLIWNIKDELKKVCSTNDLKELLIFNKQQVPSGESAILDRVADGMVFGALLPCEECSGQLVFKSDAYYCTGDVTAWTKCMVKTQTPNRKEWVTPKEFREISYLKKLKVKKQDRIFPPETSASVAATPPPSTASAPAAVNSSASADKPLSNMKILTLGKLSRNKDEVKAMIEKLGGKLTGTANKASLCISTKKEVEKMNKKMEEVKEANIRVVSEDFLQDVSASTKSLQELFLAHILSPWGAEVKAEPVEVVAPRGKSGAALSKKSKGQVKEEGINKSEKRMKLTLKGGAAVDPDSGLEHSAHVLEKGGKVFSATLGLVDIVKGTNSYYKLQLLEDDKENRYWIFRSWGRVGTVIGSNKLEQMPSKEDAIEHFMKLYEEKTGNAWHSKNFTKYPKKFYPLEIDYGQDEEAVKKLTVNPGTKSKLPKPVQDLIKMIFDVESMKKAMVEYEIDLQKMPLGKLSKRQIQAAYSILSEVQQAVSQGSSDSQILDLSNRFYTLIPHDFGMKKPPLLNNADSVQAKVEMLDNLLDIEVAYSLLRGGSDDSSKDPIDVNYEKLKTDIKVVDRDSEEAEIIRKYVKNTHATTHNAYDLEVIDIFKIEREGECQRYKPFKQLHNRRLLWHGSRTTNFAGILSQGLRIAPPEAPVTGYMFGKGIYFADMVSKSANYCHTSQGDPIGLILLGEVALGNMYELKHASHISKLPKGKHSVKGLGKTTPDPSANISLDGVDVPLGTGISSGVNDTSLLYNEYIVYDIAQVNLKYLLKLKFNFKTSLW

For one substance, binding results are on record in paper PMC7721363.

In assay [1] the target is KLF4, endogenous in MDA-MB-231 cells (human (endogenous in MDA-MB-231)) (UniProt O43474). The assay is described as follows: proximity ligation; in situ PLA in MDA-MB-231 cells; rabbit anti-PARP (46D11) and mouse anti-KLF4 (F-8); control KLF4/rabbit IgG.
For assay [2] the target is unchanged. The assay is described as follows: co-IP; endogenous proteins, MDA-MB-231 cytosolic and nuclear lysates; IP of the KLF4 complex and blot for PARP1; also with ethidium bromide added to the lysate.

In the case of “PARP1, endogenous in MDA-MB-231 cells (from UniProt P09874 1-1014)”, the binding result in assay [1] and in assay [2] was “binds” in each case.
